Reference: paper PMC8576121

Legend:
Test in all cases: affinity purification with mass spectrometry; N-His6 bait overproduced in H. volcanii; cytoplasmic extract on nickel chelating sepharose at room temperature in 2.1 M NaCl, 20 mM HEPES, 20 mM imidazole; four washes with 30 mM imidazole, elution with 700 mM imidazole; no RNase step, no cross-linking; co-isolated proteins identified by LC-MS/MS; three biological replicates; proteins found in the empty-vector or DHFR controls removed
[1] = biological target: T1, DNA-directed RNA polymerase subunit Rpo1N (Haloferax volcanii) (UniProt D4GZX6)
T1 sequence: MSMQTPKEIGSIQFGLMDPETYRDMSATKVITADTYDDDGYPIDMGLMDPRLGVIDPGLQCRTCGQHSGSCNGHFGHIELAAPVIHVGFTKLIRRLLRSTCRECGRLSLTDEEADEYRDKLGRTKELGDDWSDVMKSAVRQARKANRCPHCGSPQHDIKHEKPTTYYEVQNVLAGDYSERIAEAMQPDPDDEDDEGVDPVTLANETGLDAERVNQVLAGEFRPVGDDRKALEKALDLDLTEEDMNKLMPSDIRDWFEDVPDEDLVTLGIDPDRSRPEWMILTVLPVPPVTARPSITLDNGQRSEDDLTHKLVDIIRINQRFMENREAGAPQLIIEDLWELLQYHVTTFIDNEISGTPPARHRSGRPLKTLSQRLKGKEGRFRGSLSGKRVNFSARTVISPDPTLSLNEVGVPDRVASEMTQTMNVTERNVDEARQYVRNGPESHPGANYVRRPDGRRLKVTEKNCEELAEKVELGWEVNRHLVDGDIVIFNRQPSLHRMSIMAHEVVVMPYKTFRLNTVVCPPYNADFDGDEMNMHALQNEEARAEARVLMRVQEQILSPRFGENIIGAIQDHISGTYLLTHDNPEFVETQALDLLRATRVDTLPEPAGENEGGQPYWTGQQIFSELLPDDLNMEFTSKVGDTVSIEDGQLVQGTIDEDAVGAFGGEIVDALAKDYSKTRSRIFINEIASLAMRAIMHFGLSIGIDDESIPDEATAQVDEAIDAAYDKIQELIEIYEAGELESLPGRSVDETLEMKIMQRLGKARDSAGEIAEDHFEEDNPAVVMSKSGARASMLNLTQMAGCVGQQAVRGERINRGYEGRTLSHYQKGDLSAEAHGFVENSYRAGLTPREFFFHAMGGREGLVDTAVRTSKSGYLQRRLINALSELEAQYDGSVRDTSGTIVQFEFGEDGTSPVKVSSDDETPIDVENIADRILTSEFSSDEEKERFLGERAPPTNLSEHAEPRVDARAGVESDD

[2] = biological target: T2, DNA-directed RNA polymerase subunit Rpo1C (Haloferax volcanii) (UniProt D4GZX7)
T2 sequence: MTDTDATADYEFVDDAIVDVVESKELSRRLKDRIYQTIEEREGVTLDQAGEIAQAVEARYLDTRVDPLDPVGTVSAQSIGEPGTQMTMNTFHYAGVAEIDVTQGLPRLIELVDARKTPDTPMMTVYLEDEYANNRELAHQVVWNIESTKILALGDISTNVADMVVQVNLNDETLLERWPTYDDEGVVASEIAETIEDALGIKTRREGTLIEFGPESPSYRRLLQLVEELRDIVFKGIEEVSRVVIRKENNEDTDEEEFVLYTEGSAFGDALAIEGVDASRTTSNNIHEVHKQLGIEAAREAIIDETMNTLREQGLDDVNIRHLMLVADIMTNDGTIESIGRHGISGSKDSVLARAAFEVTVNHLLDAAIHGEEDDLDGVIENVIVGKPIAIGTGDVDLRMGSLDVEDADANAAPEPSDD

[3] = biological target: T3, DNA-directed RNA polymerase subunit Rpo5 (Haloferax volcanii) (UniProt D4GZX3)
T3 sequence: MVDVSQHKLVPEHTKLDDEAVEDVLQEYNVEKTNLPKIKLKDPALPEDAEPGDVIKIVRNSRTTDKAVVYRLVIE

[4] = biological target: T4, DNA-directed RNA polymerase subunit Rpo2N (Haloferax volcanii) (UniProt D4GZX4)
T4 sequence: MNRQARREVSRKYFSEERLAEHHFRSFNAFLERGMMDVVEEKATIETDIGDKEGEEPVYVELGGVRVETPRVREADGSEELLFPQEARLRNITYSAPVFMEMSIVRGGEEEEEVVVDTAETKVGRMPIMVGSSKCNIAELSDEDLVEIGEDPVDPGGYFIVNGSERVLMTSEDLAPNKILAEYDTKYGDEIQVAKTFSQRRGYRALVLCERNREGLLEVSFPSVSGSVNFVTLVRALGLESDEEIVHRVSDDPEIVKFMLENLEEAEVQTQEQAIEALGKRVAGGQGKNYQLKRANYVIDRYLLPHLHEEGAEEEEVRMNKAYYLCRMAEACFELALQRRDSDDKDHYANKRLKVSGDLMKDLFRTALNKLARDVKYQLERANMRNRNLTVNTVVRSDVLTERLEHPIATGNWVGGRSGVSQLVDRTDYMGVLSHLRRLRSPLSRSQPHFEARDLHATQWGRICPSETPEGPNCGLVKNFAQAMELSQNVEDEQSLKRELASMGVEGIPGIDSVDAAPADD

[5] = biological target: T5, DNA-directed RNA polymerase subunit Rpo3 (Haloferax volcanii) (UniProt D4GWY4)
T5 sequence: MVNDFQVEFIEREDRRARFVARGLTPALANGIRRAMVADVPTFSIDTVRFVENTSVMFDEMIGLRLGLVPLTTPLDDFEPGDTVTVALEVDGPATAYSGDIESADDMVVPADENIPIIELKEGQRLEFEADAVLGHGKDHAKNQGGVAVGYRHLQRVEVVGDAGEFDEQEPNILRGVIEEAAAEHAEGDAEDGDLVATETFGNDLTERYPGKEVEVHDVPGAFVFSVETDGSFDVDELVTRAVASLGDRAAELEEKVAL

[6] = biological target: T6, DNA-directed RNA polymerase subunit Rpo11 (Haloferax volcanii) (UniProt D4GVL8)
T6 sequence: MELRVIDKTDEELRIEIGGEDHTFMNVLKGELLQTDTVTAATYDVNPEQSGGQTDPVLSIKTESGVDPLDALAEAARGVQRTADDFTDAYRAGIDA

Measured: binding

B1: DNA-directed RNA polymerase subunit Rpo3 (protein, UniProt D4GWY4 1-259)
chain: MVNDFQVEFIEREDRRARFVARGLTPALANGIRRAMVADVPTFSIDTVRFVENTSVMFDEMIGLRLGLVPLTTPLDDFEPGDTVTVALEVDGPATAYSGDIESADDMVVPADENIPIIELKEGQRLEFEADAVLGHGKDHAKNQGGVAVGYRHLQRVEVVGDAGEFDEQEPNILRGVIEEAAAEHAEGDAEDGDLVATETFGNDLTERYPGKEVEVHDVPGAFVFSVETDGSFDVDELVTRAVASLGDRAAELEEKVAL
binds: [1] | [2] | [3] | [4]

B2: DNA-directed RNA polymerase subunit Rpo11 (protein, UniProt D4GVL8 1-96)
chain: MELRVIDKTDEELRIEIGGEDHTFMNVLKGELLQTDTVTAATYDVNPEQSGGQTDPVLSIKTESGVDPLDALAEAARGVQRTADDFTDAYRAGIDA
binds: [1] | [2] | [3] | [4]

B3: DNA-directed RNA polymerase subunit Rpo1N (protein, UniProt D4GZX6 1-976)
chain: MSMQTPKEIGSIQFGLMDPETYRDMSATKVITADTYDDDGYPIDMGLMDPRLGVIDPGLQCRTCGQHSGSCNGHFGHIELAAPVIHVGFTKLIRRLLRSTCRECGRLSLTDEEADEYRDKLGRTKELGDDWSDVMKSAVRQARKANRCPHCGSPQHDIKHEKPTTYYEVQNVLAGDYSERIAEAMQPDPDDEDDEGVDPVTLANETGLDAERVNQVLAGEFRPVGDDRKALEKALDLDLTEEDMNKLMPSDIRDWFEDVPDEDLVTLGIDPDRSRPEWMILTVLPVPPVTARPSITLDNGQRSEDDLTHKLVDIIRINQRFMENREAGAPQLIIEDLWELLQYHVTTFIDNEISGTPPARHRSGRPLKTLSQRLKGKEGRFRGSLSGKRVNFSARTVISPDPTLSLNEVGVPDRVASEMTQTMNVTERNVDEARQYVRNGPESHPGANYVRRPDGRRLKVTEKNCEELAEKVELGWEVNRHLVDGDIVIFNRQPSLHRMSIMAHEVVVMPYKTFRLNTVVCPPYNADFDGDEMNMHALQNEEARAEARVLMRVQEQILSPRFGENIIGAIQDHISGTYLLTHDNPEFVETQALDLLRATRVDTLPEPAGENEGGQPYWTGQQIFSELLPDDLNMEFTSKVGDTVSIEDGQLVQGTIDEDAVGAFGGEIVDALAKDYSKTRSRIFINEIASLAMRAIMHFGLSIGIDDESIPDEATAQVDEAIDAAYDKIQELIEIYEAGELESLPGRSVDETLEMKIMQRLGKARDSAGEIAEDHFEEDNPAVVMSKSGARASMLNLTQMAGCVGQQAVRGERINRGYEGRTLSHYQKGDLSAEAHGFVENSYRAGLTPREFFFHAMGGREGLVDTAVRTSKSGYLQRRLINALSELEAQYDGSVRDTSGTIVQFEFGEDGTSPVKVSSDDETPIDVENIADRILTSEFSSDEEKERFLGERAPPTNLSEHAEPRVDARAGVESDD
binds: [5] | [6] | [3] | [4]

B4: DNA-directed RNA polymerase subunit Rpo1C (protein, UniProt D4GZX7 1-419)
chain: MTDTDATADYEFVDDAIVDVVESKELSRRLKDRIYQTIEEREGVTLDQAGEIAQAVEARYLDTRVDPLDPVGTVSAQSIGEPGTQMTMNTFHYAGVAEIDVTQGLPRLIELVDARKTPDTPMMTVYLEDEYANNRELAHQVVWNIESTKILALGDISTNVADMVVQVNLNDETLLERWPTYDDEGVVASEIAETIEDALGIKTRREGTLIEFGPESPSYRRLLQLVEELRDIVFKGIEEVSRVVIRKENNEDTDEEEFVLYTEGSAFGDALAIEGVDASRTTSNNIHEVHKQLGIEAAREAIIDETMNTLREQGLDDVNIRHLMLVADIMTNDGTIESIGRHGISGSKDSVLARAAFEVTVNHLLDAAIHGEEDDLDGVIENVIVGKPIAIGTGDVDLRMGSLDVEDADANAAPEPSDD
binds: [5] | [6] | [3] | [4]

B5: RNA polymerase auxiliary subunit RpoF (protein, UniProt D4GWA3 1-118)
chain: MTIFKEKLDEEYLTTSEVKELLAEVEAERAADEEREMRYELARAIEHVNRFAHLDPEESRELVEELAELEKVDGPTAIKIADLLPQSRDELRAVFAQQRYALSGDELDEILNVVAKYV
binds: [3]

Results are given in words; binding and its absence hold for the method and conditions named. In cells and extracts the contact can be indirect. These calls come from enrichment with a bait or labelling near it, and not all partners need be listed.
